These are yes or no findings as the source states them, for the method shown. Some entries that bind do so weakly or less than the wild type.
T1: human TPR aa 1-175 (human) (UniProt P12270)
T1 sequence: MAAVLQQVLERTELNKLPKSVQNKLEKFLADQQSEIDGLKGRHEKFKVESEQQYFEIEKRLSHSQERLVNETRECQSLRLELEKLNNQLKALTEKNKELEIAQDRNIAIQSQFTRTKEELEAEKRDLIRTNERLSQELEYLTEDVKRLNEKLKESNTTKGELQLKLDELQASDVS

T2: human TPR aa 275-539 (human) (UniProt P12270)
T2 sequence: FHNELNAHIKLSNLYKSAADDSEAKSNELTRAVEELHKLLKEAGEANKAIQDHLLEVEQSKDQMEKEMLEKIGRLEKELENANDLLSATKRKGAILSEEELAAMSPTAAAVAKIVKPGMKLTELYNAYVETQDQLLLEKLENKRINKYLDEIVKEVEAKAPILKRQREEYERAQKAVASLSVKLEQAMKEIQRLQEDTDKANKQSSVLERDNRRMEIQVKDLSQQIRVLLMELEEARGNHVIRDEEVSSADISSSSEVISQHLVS

T3: human TPR aa 1-111 (human) (UniProt P12270)
T3 sequence: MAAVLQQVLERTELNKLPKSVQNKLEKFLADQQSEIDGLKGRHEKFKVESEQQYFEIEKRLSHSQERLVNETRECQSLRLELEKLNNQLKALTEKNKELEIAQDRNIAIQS

T4: human TPR aa 1-102 (human) (UniProt P12270)
T4 sequence: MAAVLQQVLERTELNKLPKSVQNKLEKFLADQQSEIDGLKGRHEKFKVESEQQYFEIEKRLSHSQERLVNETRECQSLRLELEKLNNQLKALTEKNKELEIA

T5: human TPR aa 172-651 (human) (UniProt P12270)
T5 sequence: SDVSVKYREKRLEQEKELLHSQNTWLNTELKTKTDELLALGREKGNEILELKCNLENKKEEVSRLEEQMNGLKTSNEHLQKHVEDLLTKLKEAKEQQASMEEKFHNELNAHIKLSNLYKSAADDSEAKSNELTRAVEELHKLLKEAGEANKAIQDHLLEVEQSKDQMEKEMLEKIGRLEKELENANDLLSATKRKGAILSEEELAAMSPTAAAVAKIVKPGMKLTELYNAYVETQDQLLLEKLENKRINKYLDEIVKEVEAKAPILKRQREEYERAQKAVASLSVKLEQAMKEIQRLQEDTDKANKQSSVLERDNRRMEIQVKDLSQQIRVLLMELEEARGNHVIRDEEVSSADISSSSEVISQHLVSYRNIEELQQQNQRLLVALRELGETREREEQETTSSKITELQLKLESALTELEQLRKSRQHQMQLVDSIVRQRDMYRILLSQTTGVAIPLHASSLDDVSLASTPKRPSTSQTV

T6: human TPR aa 386-539 (human) (UniProt P12270)
T6 sequence: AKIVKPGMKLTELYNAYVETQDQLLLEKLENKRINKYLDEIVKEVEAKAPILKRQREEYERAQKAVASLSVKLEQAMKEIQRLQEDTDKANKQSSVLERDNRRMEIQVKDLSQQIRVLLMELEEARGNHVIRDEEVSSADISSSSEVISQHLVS


Experiments:
Experiment in all cases: two-hybrid
[1] = target: T1, human TPR aa 1-175 (human)
[2] = target: T2, human TPR aa 275-539 (human)
[3] = target: T3, human TPR aa 1-111 (human)
[4] = target: T4, human TPR aa 1-102 (human)
[5] = target: T5, human TPR aa 172-651 (human)
[6] = target: T6, human TPR aa 386-539 (human)

binding [1] | binding [2] | binding [3] | binding [4] | binding [5] | binding [6] | Binder
binds | binds | binds | binds | binds | binds | human ZC3HC1, wild type (protein, UniProt Q86WB0 1-502) MAAPCEGQAFAVGVEKNWGAVVRSPEGTPQKIRQLIDEGIAPEEGGVDAKDTSATSQSVNGSPQAEQPSLESTSKEAFFSRVETFSSLKWAGKPFELSPLVCAKYGWVTVECDMLKCSSCQAFLCASLQPAFDFDRYKQRCAELKKALCTAHEKFCFWPDSPSPDRFGMLPLDEPAILVSEFLDRFQSLCHLDLQLPSLRPEDLKTMCLTEDKISLLLHLLEDELDHRTDERKTTIKLGSDIQVHVTACILSVCGWACSSSLESMQLSLITCSQCMRKVGLWGFQQIESSMTDLDASFGLTSSPIPGLEGRPERLPLVPESPRRMMTRSQDATFSPGSEQAEKSPGPIVSRTRSWDSSSPVDRPEPEAASPTTRTRPVTRSMGTGDTPGLEVPSSPLRKAKRARLCSSSSSDTSSRSFFDPTSQHRDWCPWVNITLGKESRENGGTEPDASAPAEPGWKAVLTILLAHKQSSQPAETDSMSLSEKSRKVFRIFRQWESLCSC
 |  |  | binds |  | binds | human ZC3HC1 C125S (protein, UniProt Q86WB0 1-502) MAAPCEGQAFAVGVEKNWGAVVRSPEGTPQKIRQLIDEGIAPEEGGVDAKDTSATSQSVNGSPQAEQPSLESTSKEAFFSRVETFSSLKWAGKPFELSPLVCAKYGWVTVECDMLKCSSCQAFLSASLQPAFDFDRYKQRCAELKKALCTAHEKFCFWPDSPSPDRFGMLPLDEPAILVSEFLDRFQSLCHLDLQLPSLRPEDLKTMCLTEDKISLLLHLLEDELDHRTDERKTTIKLGSDIQVHVTACILSVCGWACSSSLESMQLSLITCSQCMRKVGLWGFQQIESSMTDLDASFGLTSSPIPGLEGRPERLPLVPESPRRMMTRSQDATFSPGSEQAEKSPGPIVSRTRSWDSSSPVDRPEPEAASPTTRTRPVTRSMGTGDTPGLEVPSSPLRKAKRARLCSSSSSDTSSRSFFDPTSQHRDWCPWVNITLGKESRENGGTEPDASAPAEPGWKAVLTILLAHKQSSQPAETDSMSLSEKSRKVFRIFRQWESLCSC
 |  |  | binds |  | binds | human ZC3HC1 C102S (protein, UniProt Q86WB0 1-502) MAAPCEGQAFAVGVEKNWGAVVRSPEGTPQKIRQLIDEGIAPEEGGVDAKDTSATSQSVNGSPQAEQPSLESTSKEAFFSRVETFSSLKWAGKPFELSPLVSAKYGWVTVECDMLKCSSCQAFLCASLQPAFDFDRYKQRCAELKKALCTAHEKFCFWPDSPSPDRFGMLPLDEPAILVSEFLDRFQSLCHLDLQLPSLRPEDLKTMCLTEDKISLLLHLLEDELDHRTDERKTTIKLGSDIQVHVTACILSVCGWACSSSLESMQLSLITCSQCMRKVGLWGFQQIESSMTDLDASFGLTSSPIPGLEGRPERLPLVPESPRRMMTRSQDATFSPGSEQAEKSPGPIVSRTRSWDSSSPVDRPEPEAASPTTRTRPVTRSMGTGDTPGLEVPSSPLRKAKRARLCSSSSSDTSSRSFFDPTSQHRDWCPWVNITLGKESRENGGTEPDASAPAEPGWKAVLTILLAHKQSSQPAETDSMSLSEKSRKVFRIFRQWESLCSC
 |  |  | no binding |  | no binding | human ZC3HC1 C156S (protein, UniProt Q86WB0 1-502) MAAPCEGQAFAVGVEKNWGAVVRSPEGTPQKIRQLIDEGIAPEEGGVDAKDTSATSQSVNGSPQAEQPSLESTSKEAFFSRVETFSSLKWAGKPFELSPLVCAKYGWVTVECDMLKCSSCQAFLCASLQPAFDFDRYKQRCAELKKALCTAHEKFSFWPDSPSPDRFGMLPLDEPAILVSEFLDRFQSLCHLDLQLPSLRPEDLKTMCLTEDKISLLLHLLEDELDHRTDERKTTIKLGSDIQVHVTACILSVCGWACSSSLESMQLSLITCSQCMRKVGLWGFQQIESSMTDLDASFGLTSSPIPGLEGRPERLPLVPESPRRMMTRSQDATFSPGSEQAEKSPGPIVSRTRSWDSSSPVDRPEPEAASPTTRTRPVTRSMGTGDTPGLEVPSSPLRKAKRARLCSSSSSDTSSRSFFDPTSQHRDWCPWVNITLGKESRENGGTEPDASAPAEPGWKAVLTILLAHKQSSQPAETDSMSLSEKSRKVFRIFRQWESLCSC
 |  |  | binds |  | binds | human ZC3HC1 C112S (protein, UniProt Q86WB0 1-502) MAAPCEGQAFAVGVEKNWGAVVRSPEGTPQKIRQLIDEGIAPEEGGVDAKDTSATSQSVNGSPQAEQPSLESTSKEAFFSRVETFSSLKWAGKPFELSPLVCAKYGWVTVESDMLKCSSCQAFLCASLQPAFDFDRYKQRCAELKKALCTAHEKFCFWPDSPSPDRFGMLPLDEPAILVSEFLDRFQSLCHLDLQLPSLRPEDLKTMCLTEDKISLLLHLLEDELDHRTDERKTTIKLGSDIQVHVTACILSVCGWACSSSLESMQLSLITCSQCMRKVGLWGFQQIESSMTDLDASFGLTSSPIPGLEGRPERLPLVPESPRRMMTRSQDATFSPGSEQAEKSPGPIVSRTRSWDSSSPVDRPEPEAASPTTRTRPVTRSMGTGDTPGLEVPSSPLRKAKRARLCSSSSSDTSSRSFFDPTSQHRDWCPWVNITLGKESRENGGTEPDASAPAEPGWKAVLTILLAHKQSSQPAETDSMSLSEKSRKVFRIFRQWESLCSC
 |  |  | binds |  | binds | human ZC3HC1 W158A (protein, UniProt Q86WB0 1-502) MAAPCEGQAFAVGVEKNWGAVVRSPEGTPQKIRQLIDEGIAPEEGGVDAKDTSATSQSVNGSPQAEQPSLESTSKEAFFSRVETFSSLKWAGKPFELSPLVCAKYGWVTVECDMLKCSSCQAFLCASLQPAFDFDRYKQRCAELKKALCTAHEKFCFAPDSPSPDRFGMLPLDEPAILVSEFLDRFQSLCHLDLQLPSLRPEDLKTMCLTEDKISLLLHLLEDELDHRTDERKTTIKLGSDIQVHVTACILSVCGWACSSSLESMQLSLITCSQCMRKVGLWGFQQIESSMTDLDASFGLTSSPIPGLEGRPERLPLVPESPRRMMTRSQDATFSPGSEQAEKSPGPIVSRTRSWDSSSPVDRPEPEAASPTTRTRPVTRSMGTGDTPGLEVPSSPLRKAKRARLCSSSSSDTSSRSFFDPTSQHRDWCPWVNITLGKESRENGGTEPDASAPAEPGWKAVLTILLAHKQSSQPAETDSMSLSEKSRKVFRIFRQWESLCSC

Reference: publication doi:10.1101/2022.09.10.507405
